In the supplement of paper PMC12067093, “Discovery and optimisation of a covalent ligand for TRIM25 and its application to targeted protein ubiquitination” (Chemical Science, 2025):
The other results are listed elsewhere or left out.

Sequences of proteins named here, by UniProt entry; tags and fusion partners are left off. A change or cut given only in a name is not applied to a line headed by its entry.
UniProt Q96R06: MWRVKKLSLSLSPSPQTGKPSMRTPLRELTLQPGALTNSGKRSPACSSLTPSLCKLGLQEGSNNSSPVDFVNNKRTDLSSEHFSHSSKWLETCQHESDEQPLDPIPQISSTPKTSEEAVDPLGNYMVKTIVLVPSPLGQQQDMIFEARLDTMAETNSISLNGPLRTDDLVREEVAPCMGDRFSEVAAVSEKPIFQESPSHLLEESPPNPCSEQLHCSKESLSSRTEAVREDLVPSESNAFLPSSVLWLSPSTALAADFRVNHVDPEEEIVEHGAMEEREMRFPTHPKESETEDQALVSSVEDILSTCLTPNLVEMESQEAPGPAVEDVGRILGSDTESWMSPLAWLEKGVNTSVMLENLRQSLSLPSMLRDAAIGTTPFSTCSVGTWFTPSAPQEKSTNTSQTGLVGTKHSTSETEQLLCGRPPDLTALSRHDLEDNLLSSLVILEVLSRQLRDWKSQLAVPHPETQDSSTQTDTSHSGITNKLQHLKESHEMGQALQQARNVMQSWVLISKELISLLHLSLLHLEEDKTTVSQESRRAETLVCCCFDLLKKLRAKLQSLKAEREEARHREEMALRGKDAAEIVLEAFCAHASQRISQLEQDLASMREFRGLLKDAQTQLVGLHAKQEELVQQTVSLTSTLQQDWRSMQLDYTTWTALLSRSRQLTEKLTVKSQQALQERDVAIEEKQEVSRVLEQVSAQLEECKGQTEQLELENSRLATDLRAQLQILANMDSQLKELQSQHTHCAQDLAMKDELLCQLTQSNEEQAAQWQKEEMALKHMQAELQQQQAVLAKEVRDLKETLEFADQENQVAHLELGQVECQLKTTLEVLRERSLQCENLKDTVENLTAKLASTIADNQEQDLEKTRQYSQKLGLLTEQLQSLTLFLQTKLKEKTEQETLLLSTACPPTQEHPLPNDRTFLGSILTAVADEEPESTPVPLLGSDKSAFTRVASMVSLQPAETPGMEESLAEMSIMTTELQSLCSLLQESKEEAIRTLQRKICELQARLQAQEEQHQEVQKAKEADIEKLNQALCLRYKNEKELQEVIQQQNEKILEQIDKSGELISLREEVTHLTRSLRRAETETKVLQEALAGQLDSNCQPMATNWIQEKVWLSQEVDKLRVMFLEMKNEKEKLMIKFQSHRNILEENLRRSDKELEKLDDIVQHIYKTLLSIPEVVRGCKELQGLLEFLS
UniProt Q9Y6N5: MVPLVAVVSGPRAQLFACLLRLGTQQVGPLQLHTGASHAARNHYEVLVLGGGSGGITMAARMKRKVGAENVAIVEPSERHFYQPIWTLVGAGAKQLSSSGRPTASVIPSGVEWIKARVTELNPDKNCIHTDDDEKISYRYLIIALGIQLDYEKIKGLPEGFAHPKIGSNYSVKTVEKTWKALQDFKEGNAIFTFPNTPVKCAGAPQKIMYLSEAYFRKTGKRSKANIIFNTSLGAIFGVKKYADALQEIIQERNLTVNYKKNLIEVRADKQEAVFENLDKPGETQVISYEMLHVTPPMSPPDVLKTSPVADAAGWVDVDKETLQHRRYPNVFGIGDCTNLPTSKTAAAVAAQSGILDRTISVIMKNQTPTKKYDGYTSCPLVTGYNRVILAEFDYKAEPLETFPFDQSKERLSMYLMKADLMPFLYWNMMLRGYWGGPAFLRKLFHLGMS
UniProt O60504: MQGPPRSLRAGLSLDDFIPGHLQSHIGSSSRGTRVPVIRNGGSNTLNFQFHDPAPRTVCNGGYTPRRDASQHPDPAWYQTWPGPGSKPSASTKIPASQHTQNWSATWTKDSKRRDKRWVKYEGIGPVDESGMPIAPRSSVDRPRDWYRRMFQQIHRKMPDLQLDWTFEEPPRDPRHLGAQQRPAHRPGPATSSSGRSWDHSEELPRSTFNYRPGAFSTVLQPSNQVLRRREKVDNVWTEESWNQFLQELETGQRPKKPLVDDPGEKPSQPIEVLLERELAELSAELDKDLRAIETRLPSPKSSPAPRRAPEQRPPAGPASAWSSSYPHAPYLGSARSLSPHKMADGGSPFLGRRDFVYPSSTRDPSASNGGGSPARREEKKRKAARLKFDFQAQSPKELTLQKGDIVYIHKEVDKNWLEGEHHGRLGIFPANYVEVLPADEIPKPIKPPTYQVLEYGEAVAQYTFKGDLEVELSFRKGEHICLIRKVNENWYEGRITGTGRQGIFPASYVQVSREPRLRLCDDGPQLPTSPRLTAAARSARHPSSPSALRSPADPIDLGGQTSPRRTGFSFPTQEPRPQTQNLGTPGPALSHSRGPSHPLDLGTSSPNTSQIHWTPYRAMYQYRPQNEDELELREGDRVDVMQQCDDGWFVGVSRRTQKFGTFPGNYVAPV
UniProt O15269: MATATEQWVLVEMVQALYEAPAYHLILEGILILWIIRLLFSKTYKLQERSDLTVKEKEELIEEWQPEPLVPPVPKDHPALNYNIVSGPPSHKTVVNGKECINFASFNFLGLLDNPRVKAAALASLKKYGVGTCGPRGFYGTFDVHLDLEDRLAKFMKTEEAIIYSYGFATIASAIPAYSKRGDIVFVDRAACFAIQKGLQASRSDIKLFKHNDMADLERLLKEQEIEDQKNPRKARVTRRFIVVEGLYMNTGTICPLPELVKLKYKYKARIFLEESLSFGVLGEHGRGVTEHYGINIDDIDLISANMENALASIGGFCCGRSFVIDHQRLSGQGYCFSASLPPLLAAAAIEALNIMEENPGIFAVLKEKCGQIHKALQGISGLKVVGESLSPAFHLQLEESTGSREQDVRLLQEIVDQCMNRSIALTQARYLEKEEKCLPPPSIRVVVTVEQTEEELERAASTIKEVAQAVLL
UniProt Q02447: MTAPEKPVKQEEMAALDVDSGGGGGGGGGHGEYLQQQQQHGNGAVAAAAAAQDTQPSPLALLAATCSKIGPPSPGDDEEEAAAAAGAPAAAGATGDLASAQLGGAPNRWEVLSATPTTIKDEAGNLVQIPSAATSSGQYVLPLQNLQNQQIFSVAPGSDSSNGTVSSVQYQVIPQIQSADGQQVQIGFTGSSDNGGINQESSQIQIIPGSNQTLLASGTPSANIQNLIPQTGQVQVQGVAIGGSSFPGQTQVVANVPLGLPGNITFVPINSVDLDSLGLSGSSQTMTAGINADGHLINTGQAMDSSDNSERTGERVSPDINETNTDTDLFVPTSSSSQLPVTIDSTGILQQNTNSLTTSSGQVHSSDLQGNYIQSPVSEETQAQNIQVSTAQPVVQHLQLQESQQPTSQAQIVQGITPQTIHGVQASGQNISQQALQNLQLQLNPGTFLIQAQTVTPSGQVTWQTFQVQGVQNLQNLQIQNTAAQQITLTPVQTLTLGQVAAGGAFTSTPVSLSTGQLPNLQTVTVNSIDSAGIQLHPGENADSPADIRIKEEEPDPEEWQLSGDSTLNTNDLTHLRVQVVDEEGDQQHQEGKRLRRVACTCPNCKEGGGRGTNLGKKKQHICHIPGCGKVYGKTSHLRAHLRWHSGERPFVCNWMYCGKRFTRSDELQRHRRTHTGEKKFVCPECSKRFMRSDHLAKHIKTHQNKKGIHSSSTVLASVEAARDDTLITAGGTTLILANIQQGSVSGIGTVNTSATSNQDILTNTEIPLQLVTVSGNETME
UniProt Q01082, whole entry, looked up: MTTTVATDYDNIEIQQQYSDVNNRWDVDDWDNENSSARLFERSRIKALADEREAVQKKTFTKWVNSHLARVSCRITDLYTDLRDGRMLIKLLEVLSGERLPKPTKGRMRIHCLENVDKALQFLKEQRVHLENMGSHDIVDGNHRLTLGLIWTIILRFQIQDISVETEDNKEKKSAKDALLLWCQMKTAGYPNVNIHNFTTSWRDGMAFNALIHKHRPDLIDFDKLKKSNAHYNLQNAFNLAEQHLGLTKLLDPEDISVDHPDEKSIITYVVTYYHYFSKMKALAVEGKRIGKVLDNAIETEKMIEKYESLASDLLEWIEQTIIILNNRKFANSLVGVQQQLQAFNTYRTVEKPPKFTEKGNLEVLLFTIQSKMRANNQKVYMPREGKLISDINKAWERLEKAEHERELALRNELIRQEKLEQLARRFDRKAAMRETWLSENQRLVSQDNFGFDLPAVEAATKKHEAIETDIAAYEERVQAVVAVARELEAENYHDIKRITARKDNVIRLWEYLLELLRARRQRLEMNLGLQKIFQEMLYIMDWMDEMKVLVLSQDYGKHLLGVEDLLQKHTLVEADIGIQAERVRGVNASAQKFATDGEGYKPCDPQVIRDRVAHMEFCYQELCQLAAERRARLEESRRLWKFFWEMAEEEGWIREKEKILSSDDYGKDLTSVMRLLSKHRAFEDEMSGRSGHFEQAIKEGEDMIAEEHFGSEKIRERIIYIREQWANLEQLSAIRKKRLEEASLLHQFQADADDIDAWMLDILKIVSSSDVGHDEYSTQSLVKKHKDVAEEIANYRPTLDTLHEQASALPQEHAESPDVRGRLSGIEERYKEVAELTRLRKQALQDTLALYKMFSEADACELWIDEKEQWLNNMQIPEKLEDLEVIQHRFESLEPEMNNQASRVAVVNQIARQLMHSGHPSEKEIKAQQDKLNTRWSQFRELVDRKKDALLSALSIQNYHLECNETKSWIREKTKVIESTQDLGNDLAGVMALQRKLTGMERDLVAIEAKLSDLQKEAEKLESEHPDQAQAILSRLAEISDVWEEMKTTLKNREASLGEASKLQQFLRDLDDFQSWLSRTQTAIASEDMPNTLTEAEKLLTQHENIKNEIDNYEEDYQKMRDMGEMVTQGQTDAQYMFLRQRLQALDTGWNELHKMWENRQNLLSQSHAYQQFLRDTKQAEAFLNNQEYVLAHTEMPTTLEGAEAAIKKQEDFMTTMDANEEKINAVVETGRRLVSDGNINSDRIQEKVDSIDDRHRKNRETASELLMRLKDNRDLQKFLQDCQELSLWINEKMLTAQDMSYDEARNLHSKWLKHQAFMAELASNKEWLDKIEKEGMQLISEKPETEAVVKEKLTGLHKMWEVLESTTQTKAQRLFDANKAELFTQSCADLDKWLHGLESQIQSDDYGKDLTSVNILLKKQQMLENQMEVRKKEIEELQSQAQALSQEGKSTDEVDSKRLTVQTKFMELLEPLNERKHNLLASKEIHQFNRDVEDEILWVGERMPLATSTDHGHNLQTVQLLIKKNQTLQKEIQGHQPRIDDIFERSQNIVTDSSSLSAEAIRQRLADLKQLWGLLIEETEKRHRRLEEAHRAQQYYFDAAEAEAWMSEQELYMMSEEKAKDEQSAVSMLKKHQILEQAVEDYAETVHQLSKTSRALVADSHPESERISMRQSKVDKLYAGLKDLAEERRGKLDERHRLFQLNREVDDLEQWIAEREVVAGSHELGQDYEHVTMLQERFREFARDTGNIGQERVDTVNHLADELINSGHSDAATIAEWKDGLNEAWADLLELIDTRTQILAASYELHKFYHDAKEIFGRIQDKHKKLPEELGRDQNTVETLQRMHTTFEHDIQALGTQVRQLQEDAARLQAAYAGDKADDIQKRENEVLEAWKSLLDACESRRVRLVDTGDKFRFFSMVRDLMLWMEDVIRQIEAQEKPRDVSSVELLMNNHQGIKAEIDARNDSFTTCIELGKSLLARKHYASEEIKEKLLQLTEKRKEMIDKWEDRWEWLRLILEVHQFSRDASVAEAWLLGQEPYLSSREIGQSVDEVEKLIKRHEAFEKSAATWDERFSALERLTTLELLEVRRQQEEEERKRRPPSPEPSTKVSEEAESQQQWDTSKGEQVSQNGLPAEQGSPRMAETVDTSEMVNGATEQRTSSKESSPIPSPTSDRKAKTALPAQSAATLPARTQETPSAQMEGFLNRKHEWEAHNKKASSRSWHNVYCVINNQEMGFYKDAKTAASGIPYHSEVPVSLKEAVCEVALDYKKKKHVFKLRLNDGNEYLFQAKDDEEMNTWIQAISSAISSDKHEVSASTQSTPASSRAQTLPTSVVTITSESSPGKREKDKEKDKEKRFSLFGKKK
UniProt P62316, whole entry, looked up: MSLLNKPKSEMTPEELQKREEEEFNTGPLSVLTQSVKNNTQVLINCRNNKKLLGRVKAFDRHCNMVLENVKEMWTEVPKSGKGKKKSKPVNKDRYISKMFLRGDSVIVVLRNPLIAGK
UniProt P30626: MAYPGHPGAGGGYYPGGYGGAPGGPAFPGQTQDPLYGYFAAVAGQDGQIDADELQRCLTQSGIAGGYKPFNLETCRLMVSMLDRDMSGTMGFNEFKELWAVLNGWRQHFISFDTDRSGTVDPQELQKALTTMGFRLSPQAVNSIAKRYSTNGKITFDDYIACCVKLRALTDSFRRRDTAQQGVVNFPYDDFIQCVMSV
UniProt P00441, whole entry, looked up: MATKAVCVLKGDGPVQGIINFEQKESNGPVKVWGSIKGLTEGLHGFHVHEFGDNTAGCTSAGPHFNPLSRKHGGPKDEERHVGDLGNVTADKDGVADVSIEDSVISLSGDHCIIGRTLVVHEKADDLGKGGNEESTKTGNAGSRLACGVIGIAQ
UniProt P09234, whole entry, looked up: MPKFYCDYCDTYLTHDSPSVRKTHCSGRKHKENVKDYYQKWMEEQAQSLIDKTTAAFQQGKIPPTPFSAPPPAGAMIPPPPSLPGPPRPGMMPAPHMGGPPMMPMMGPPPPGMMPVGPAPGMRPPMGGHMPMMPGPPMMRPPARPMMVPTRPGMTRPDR

Compound: CC1Cc2ccccc2N1C(=O)C1CCCN(C1)C(=O)CCl (mixture of isomers) [TRIM25 ligand 11 (diastereomer mixture)]
Assay: probe-labelled cysteine peptide fold change vs DMSO (competition) (log2 fold change); higher = less target engagement (more negative = stronger competition)
Settings: THP-1, incubation time: 4 h
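Note: competitive chemoproteomic profiling in live THP-1 cells with an iodoacetamide desthiobiotin (IA-DTB) probe, comparing probe-labelled peptide intensities in compound-treated cells against DMSO-treated controls.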

Row | Target | probe-labelled cysteine peptide fold change (10 µM) | probe-labelled cysteine peptide fold change (50 µM)
1 | SRGN_P10124_40+49_CNPDSNSANCLEEK (UniProt P10124) | 0.0607 | -0.412
2 | SOGA1_O94964_499_KADAVLGCSVK (UniProt O94964) | -0.102 | -0.068
3 | SPAG5_Q96R06_907_TEQETLLLSTACPPTQEHPLPNDR (UniProt Q96R06) | 0.146 | -0.116
4 | SPRYD3_Q8NCJ5_272_CYIALGLAR (UniProt Q8NCJ5) | -0.00509 | 0.142
5 | SNX9_Q9Y5X1_502_GFLGCFPDIIGTHK (UniProt Q9Y5X1) | 0.0786 | 0.0871
6 | SQOR_Q9Y6N5_201_CAGAPQK (UniProt Q9Y6N5) | -0.0709 | -0.0121
7 | SORBS3_O60504_482_GEHICLIR (UniProt O60504) | 0.12 | 0.166
8 | SPTLC1_O15269_192_AACFAIQK (UniProt O15269) | 0.0936 | -0.0125
9 | SQSTM1_Q13501_113_RDHRPPCAQEAPR (UniProt Q13501) | -0.0908 | -0.174
10 | SPTLC1_O15269_133_KYGVGTCGPR (UniProt O15269) | -0.199 | -0.03
11 | SP110_Q9HB58_327_DDSTCNSTVETR (UniProt Q9HB58) | 0.0292 | -0.106
12 | SNX9_Q9Y5X1_399_CEAVGK (UniProt Q9Y5X1) | 0.0851 | -0.0622
13 | SQOR_Q9Y6N5_379_KYDGYTSCPLVTGYNR (UniProt Q9Y6N5) | -0.0228 | 0.0291
14 | SNX27_Q96L92_456_LHACTEEGQLENQVIAFEWDEMQR (UniProt Q96L92) | 0.194 | 0.0672
15 | SRP72_O76094_128_YDECLAVYR (UniProt O76094) | 0.102 | 0.151
16 | SPATA5_Q8NB90_163_DMEINEEELTGCILR (UniProt Q8NB90) | 0.00135 | -0.151
17 | SREBF2_Q12772_787_ESLYCAQR (UniProt Q12772) | -0.0085 | 0.243
18 | SREK1IP1_Q8N9Q2_18_CGYPGHLTFECR (UniProt Q8N9Q2) | 0.108 | 0.0817
19 | SPTLC2_O15270_99_CHHATER (UniProt O15270) | 0.261 | 0.971
20 | SP3_Q02447_623+628_KQHICHIPGCGK (UniProt Q02447) | -0.0261 | 0.063
21 | SPECC1_Q5M775_578_ATEASAVEQTAESCEVQEMLK (UniProt Q5M775) | 0.0146 | -0.159

Copied from above, nos. 11–14
Row | Target | probe-labelled cysteine peptide fold change (10 µM) | probe-labelled cysteine peptide fold change (50 µM)
11 | SP110_Q9HB58_327_DDSTCNSTVETR (UniProt Q9HB58) | 0.0292 | -0.106
12 | SNX9_Q9Y5X1_399_CEAVGK (UniProt Q9Y5X1) | 0.0851 | -0.0622
13 | SQOR_Q9Y6N5_379_KYDGYTSCPLVTGYNR (UniProt Q9Y6N5) | -0.0228 | 0.0291
14 | SNX27_Q96L92_456_LHACTEEGQLENQVIAFEWDEMQR (UniProt Q96L92) | 0.194 | 0.0672

Continuation:

Row | Target | probe-labelled cysteine peptide fold change (10 µM) | probe-labelled cysteine peptide fold change (50 µM)
22 | SPTBN1_Q01082_624_VAHMEFCYQELCQLAAER (UniProt Q01082) | 0.0414 | 0.146
23 | SNX9_Q9Y5X1_427_CTGPLPK (UniProt Q9Y5X1) | -0.0883 | -0.0548
24 | SP100_P23497_373_EGQEATCSRPQIVPEPMDFRK (UniProt P23497) | -0.171 | -0.316
25 | SQSTM1_Q13501_131_NMVHPNVICDGCNGPVVGTR (UniProt Q13501) | -0.133 | 0.0255
26 | SNRPD2_P62316_63_HCNMVLENVK (UniProt P62316) | -0.117 | -0.0606
27 | SP3_Q02447_628_KQHICHIPGCGK (UniProt Q02447) | -0.482 | -0.259
28 | SNX9_Q9Y5X1_492_DLHFLMECNHEYK (UniProt Q9Y5X1) | -0.0515 | -0.0586
29 | SRI_P30626_162_ITFDDYIACCVK (UniProt P30626) | -0.118 | -0.151
30 | SNX20_Q7Z614_155_HLTGNFAEEMICER (UniProt Q7Z614) | -0.0274 | -0.125
31 | SPTAN1_Q13813_158_ECEDVMDWINDK (UniProt Q13813) | -0.0266 | 0.0967
32 | SPAG5_Q96R06_420_HSTSETEQLLCGRPPDLTALSR (UniProt Q96R06) | -0.0146 | -0.213
33 | SNX14_Q9Y5W7_732_GQHLEPFIMNFINSCESPKPK (UniProt Q9Y5W7) | -0.0516 | -0.121
34 | SP110_Q9HB58_283_CIWSTPK (UniProt Q9HB58) | -0.0816 | -0.2
35 | SRCAP_Q6ZRS2_141_GHWDYLCEEMQWLSADFAQER (UniProt Q6ZRS2) | 0.208 | -0.00654
36 | SORBS3_O60504_482_KGEHICLIR (UniProt O60504) | 0.0742 | 0.0203
37 | SPECC1_Q5M775_598_DLLELSCNELR (UniProt Q5M775) | -0.0445 | 0.151
38 | SNX6_Q9UNH7_149_TVAMHEVFLCR (UniProt Q9UNH7) | -0.00902 | -0.143
39 | SNRPD2_P62316_46_NNTQVLINCR (UniProt P62316) | -0.0881 | 0.0337
40 | SPATA5L1_Q9BVQ7_104_LLLVPCPPLRR (UniProt Q9BVQ7) | -0.0644 | 0.126
41 | SNRPB_P14678_43_HMNLILCDCDEFRK (UniProt P14678) | -0.123 | 0.0763
42 | SPC25_Q9HBM1_27_STDTSCQMAGLR (UniProt Q9HBM1) | 0.0363 | -0.08

Record cards, from the list above. Values in the order: probe-labelled cysteine peptide fold change (10 µM) | probe-labelled cysteine peptide fold change (50 µM)
SPTBN1_Q01082_624_VAHMEFCYQELCQLAAER (UniProt Q01082) in the list: 0.0414 | 0.146
SNX9_Q9Y5X1_492_DLHFLMECNHEYK (UniProt Q9Y5X1) in the list: -0.0515 | -0.0586

Carrying on:

Row | Target | probe-labelled cysteine peptide fold change (10 µM) | probe-labelled cysteine peptide fold change (50 µM)
43 | SPTAN1_Q13813_1454_DCEQAENWMAAR (UniProt Q13813) | -0.103 | -0.0112
44 | SRBD1_Q8N5C6_294_MSECLLK (UniProt Q8N5C6) | -0.163 | -0.438
45 | SPTBN1_Q01082_1389_AELFTQSCADLDK (UniProt Q01082) | 0.0044 | -0.0744
46 | SRP68_Q9UHB9_562_FETFCLDPSLVTK (UniProt Q9UHB9) | -0.102 | -0.146
47 | SON_P18583_1551_EMEHNTVCAAGTSPVGEIGEEK (UniProt P18583) | 0.0276 | -0.264
48 | SPTLC1_O15269_133_YGVGTCGPR (UniProt O15269) | -0.136 | -0.0294
49 | SPTAN1_Q13813_956_EQAQSCR (UniProt Q13813) | -0.11 | -0.0168
50 | SRI_P30626_163_ITFDDYIACCVK (UniProt P30626) | -0.183 | -0.128
51 | SP100_P23497_373_EGQEATCSRPQIVPEPMDFR (UniProt P23497) | -0.0901 | -0.296
52 | SNRPB_P14678_43+45_HMNLILCDCDEFR (UniProt P14678) | 0.0226 | 0.125
53 | SORBS3_O60504_521_LCDDGPQLPTSPR (UniProt O60504) | -0.0702 | -0.115
54 | SNU13_P55769_102_PVIACSVTIK (UniProt P55769) | -0.0974 | 0.132
55 | SNUPN_O95149_356_GSSHSPDHPGCLMEN (UniProt O95149) | 0.0268 | -0.656
56 | SNX29_Q8TEQ0_44_VTCLCAQFEAVLQHGLK (UniProt Q8TEQ0) | 0.0246 | 0.0548
57 | SOD1_P00441_7_AVCVLK (UniProt P00441) | -0.114 | 0.117
58 | SRM_P19623_89_DEFSYQEMIANLPLCSHPNPR (UniProt P19623) | 0.193 | -0.0109
59 | SNRPC_P09234_25_THCSGR (UniProt P09234) | -0.0142 | 0.157
60 | SREBF1_P36956_932_ALLGCAK (UniProt P36956) | -0.00564 | 0.0554
61 | SPEN_Q96T58_1238_MDHVDFDICTK (UniProt Q96T58) | -0.183 | -0.25
62 | SPOUT1_Q5T280_239_LNQQQHPDCK (UniProt Q5T280) | 0.00935 | 0.134
63 | SRP54_P61011_136_TCLICADTFR (UniProt P61011) | -0.0315 | 0.0326

Row | Target | probe-labelled cysteine peptide fold change (10 µM) | probe-labelled cysteine peptide fold change (50 µM)
64 | SP100_P23497_309_VECQAQAR (UniProt P23497) | -0.044 | -0.254
65 | SPTBN1_Q01082_964_DALLSALSIQNYHLECNETK (UniProt Q01082) | 0.143 | 0.206
66 | SNX14_Q9Y5W7_593_ERIPVFCIDVER (UniProt Q9Y5W7) | -0.0227 | 0.00739
67 | SON_P18583_2070_ANAAAMCAK (UniProt P18583) | 0.0129 | -0.103
68 | SPAG9_O60271_689_LWCAVGVNLSGGK (UniProt O60271) | -0.234 | -0.00744
69 | SPTBN1_Q01082_1900_SLLDACESRR (UniProt Q01082) | -0.119 | -0.13
70 | SP3_Q02447_602_VACTCPNCK (UniProt Q02447) | -0.113 | -0.0153
71 | SPOUT1_Q5T280_151_ILQYLECPQYLR (UniProt Q5T280) | -0.299 | -0.175
72 | SPATA20_Q8TB22_671_CVCLLTAFSER (UniProt Q8TB22) | -0.0272 | 0.0674
73 | SRD5A3_Q9H8P0_238_AGVVIHCNHR (UniProt Q9H8P0) | 0.00183 | -0.036
74 | SORD_Q00796_350_CDPSDQNP (UniProt Q00796) | -0.0424 | -0.0486
75 | SPATA5_Q8NB90_459_HPSIIFIDELDALCPK (UniProt Q8NB90) | -0.0102 | -0.321
76 | SPAG5_Q96R06_704_VLEQVSAQLEECK (UniProt Q96R06) | -0.0111 | -0.0065
77 | SREBF2_Q12772_832_AGDQEEESCEFSSALEYLK (UniProt Q12772) | 0.0142 | 0.158
78 | SORD_Q00796_45_MHSVGICGSDVHYWEYGR (UniProt Q00796) | -0.103 | -0.493
79 | SPATA5_Q8NB90_672_GVLLYGPPGCSK (UniProt Q8NB90) | 0.121 | 0.0949
80 | SREK1_Q8WXA9-2_96_ALIVVPCAEGK (UniProt Q8WXA9) | 0.0684 | -0.217
81 | SPECC1_Q5M775_598_DLLELSCNELRQELLK (UniProt Q5M775) | -0.45 | -0.243
82 | SPTBN1_Q01082_619+624_VAHMEFCYQELCQLAAER (UniProt Q01082) | 0.0536 | -0.262
